In publication PMC9095961 one finds binding data, which are given here for three molecules.

The chains behind the UniProt entries cited, without tags or fusion partners. Where a name states a change or a piece, a line headed by the entry shows the natural chain unless it says otherwise.
UniProt Q93009: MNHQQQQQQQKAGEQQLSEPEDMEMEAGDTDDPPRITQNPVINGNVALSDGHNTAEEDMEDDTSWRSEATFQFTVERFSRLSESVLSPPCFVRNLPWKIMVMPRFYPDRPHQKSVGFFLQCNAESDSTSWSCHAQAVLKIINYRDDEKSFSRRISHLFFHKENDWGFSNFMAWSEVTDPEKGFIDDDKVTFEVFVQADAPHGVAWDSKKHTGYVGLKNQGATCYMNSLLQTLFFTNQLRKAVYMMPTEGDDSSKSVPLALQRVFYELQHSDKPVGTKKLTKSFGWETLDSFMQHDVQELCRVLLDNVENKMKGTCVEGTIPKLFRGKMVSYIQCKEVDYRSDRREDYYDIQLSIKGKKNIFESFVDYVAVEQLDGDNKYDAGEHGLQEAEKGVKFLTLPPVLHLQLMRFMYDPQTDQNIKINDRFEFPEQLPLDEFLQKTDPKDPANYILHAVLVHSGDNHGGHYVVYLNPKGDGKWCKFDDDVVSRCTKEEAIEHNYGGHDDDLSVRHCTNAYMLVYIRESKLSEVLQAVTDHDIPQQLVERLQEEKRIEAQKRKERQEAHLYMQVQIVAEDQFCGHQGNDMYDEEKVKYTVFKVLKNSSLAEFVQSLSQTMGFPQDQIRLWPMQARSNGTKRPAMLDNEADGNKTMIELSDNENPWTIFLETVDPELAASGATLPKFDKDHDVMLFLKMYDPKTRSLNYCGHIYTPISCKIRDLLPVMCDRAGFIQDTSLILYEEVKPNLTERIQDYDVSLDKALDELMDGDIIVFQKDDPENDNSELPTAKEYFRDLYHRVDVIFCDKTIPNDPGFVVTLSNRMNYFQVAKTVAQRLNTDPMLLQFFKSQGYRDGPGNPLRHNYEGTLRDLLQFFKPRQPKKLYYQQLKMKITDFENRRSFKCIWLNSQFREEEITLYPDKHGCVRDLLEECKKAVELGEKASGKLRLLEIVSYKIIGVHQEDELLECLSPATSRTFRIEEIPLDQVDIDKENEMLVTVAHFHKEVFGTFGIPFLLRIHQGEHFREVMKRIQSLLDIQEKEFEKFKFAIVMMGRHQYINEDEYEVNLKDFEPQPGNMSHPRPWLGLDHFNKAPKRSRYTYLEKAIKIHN
UniProt O53348: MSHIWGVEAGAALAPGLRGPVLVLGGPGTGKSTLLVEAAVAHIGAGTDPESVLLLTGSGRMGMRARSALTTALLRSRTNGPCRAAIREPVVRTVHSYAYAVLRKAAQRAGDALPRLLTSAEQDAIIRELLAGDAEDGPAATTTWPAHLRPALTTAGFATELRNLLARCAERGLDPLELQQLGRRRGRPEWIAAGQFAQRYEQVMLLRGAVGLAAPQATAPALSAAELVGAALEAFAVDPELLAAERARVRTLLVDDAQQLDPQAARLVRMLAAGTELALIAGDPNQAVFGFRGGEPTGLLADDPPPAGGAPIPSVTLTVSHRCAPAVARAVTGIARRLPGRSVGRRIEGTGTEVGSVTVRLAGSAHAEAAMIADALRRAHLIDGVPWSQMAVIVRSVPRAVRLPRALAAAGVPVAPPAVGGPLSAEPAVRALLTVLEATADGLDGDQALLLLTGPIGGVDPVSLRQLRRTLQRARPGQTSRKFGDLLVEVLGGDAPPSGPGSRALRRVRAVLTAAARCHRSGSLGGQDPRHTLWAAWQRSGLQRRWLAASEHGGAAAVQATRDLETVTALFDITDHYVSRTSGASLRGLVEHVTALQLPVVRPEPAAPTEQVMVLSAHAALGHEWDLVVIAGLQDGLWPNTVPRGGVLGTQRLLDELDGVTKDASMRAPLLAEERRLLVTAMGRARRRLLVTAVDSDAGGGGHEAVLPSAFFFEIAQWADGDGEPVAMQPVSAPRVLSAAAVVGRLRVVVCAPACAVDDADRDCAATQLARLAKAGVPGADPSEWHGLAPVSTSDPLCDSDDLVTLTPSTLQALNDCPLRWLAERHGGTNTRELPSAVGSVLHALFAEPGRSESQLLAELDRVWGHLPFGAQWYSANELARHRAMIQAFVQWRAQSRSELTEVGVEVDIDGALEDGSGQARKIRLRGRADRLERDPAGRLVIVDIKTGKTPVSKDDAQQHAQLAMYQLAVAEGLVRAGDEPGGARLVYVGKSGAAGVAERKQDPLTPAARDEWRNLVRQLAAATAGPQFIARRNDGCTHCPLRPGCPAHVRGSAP
UniProt Q79FD4: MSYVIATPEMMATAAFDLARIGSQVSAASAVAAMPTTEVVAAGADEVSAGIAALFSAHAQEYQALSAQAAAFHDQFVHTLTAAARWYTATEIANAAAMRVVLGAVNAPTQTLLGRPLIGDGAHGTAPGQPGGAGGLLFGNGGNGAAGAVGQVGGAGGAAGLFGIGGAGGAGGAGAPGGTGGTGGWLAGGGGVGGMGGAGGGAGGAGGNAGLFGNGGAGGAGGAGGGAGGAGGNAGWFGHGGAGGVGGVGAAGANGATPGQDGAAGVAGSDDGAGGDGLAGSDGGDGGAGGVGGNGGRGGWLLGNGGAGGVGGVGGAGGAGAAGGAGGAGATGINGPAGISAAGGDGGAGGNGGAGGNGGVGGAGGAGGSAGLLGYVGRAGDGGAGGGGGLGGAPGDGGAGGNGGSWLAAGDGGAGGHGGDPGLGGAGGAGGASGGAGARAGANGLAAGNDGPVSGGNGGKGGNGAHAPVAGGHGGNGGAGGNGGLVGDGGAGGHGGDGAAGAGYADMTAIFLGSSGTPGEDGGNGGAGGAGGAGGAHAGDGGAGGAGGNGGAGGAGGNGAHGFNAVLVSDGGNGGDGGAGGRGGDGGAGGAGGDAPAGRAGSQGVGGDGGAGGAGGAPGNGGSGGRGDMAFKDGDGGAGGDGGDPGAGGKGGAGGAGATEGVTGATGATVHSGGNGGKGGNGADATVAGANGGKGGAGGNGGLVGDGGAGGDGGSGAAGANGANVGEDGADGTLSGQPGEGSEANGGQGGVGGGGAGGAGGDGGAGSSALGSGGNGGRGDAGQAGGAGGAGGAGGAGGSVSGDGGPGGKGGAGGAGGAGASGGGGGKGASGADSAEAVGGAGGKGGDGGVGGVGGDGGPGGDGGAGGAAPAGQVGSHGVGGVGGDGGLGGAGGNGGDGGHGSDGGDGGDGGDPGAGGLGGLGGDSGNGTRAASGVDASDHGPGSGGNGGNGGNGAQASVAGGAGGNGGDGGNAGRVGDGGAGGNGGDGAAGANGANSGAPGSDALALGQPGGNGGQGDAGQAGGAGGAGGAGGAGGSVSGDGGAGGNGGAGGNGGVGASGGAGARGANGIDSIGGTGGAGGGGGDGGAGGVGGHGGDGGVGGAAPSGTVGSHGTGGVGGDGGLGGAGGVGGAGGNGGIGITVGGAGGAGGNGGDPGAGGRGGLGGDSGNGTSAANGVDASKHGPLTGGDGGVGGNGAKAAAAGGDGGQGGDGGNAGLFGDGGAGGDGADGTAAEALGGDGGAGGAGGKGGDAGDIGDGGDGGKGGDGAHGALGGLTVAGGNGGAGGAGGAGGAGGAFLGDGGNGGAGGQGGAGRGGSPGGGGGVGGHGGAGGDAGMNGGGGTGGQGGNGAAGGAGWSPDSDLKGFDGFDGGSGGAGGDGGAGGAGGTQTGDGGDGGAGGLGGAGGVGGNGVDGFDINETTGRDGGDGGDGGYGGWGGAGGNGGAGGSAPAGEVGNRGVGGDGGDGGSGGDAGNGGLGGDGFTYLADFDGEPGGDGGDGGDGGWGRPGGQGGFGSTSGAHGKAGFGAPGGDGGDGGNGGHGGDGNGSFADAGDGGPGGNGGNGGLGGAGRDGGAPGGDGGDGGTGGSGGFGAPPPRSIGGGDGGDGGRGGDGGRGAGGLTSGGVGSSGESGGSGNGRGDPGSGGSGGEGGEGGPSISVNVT

The target in the assay is recombinant HAUSP (UniProt Q93009). The assay is described as follows: affinity purification with mass spectrometry; only the target purified.

These are yes or no findings as the source states them, for the method shown. Binding seen in cells or lysates may run through a third protein. Here binding means that the protein was enriched with, or labelled near, the bait; the list need not be complete.

For the molecule “Rv3202c (DNA helicase) (from UniProt O53348) (enzyme)”, the binding result is listed as “binds”.
For the molecule “Rv2490c (PE_PGRS43) (from UniProt Q79FD4 1-1660)”, the binding result is reported as “binds”.

B1: Rv2967c (pyruvate carboxylase, pca) (enzyme, UniProt A5U6X6 1-1127)
chain: MFSKVLVANRGEIAIRAFRAAYELGVGTVAVYPYEDRNSQHRLKADESYQIGDIGHPVHAYLSVDEIVATARRAGADAIYPGYGFLSENPDLAAACAAAGISFVGPSAEVLELAGNKSRAIAAAREAGLPVLMSSAPSASVDELLSVAAGMPFPLFVKAVAGGGGRGMRRVGDIAALPEAIEAASREAESAFGDPTVYLEQAVINPRHIEVQILADNLGDVIHLYERDCSVQRRHQKVIELAPAPHLDAELRYKMCVDAVAFARHIGYSCAGTVEFLLDERGEYVFIEMNPRVQVEHTVTEEITDVDLVASQLRIAAGETLEQLGLRQEDIAPHGAALQCRITTEDPANGFRPDTGRISALRTAGGAGVRLDGSTNLGAEISPYFDSMLVKLTCRGRDLPTAVSRARRAIAEFRIRGVSTNIPFLQAVLDDPDFRAGRVTTSFIDERPQLLTARASADRGTKILNFLADVTVNNPYGSRPSTIYPDDKLPDLDLRAAPPAGSKQRLVKLGPEGFARWLRESAAVGVTDTTFRDAHQSLLATRVRTSGLSRVAPYLARTMPQLLSVECWGGATYDVALRFLKEDPWERLATLRAAMPNICLQMLLRGRNTVGYTPYPEIVTSAFVQEATATGIDIFRIFDALNNIESMRPAIDAVRETGSAIAEVAMCYTGDLTDPGEQLYTLDYYLKLAEQIVDAGAHVLAIKDMAGLLRPPAAQRLVSALRSRFDLPVHLHTHDTPGGQLASYVAAWHAGADAVDGAAAPLAGTTSQPALSSIVAAAAHTEYDTGLSLSAVCALEPYWEALRKVYAPFESGLPGPTGRVYHHEIPGGQLSNLRQQAIALGLGDRFEEIEEAYAGADRVLGRLVKVTPTSKVVGDLALALVGAGVSADEFASDPARFGIPESVLGFLRGELGDPPGGWPEPLRTAALAGRGAARPTAQLAADDEIALSSVGAKRQATLNRLLFPSPTKEFNEHREAYGDTSQLSANQFFYGLRQGEEHRVKLERGVELLIGLEAISEPDERGMRTVMCILNGQLRPVLVRDRSIASAVPAAEKADRGNPGHIAAPFAGVVTVGVCVGERVGAGQTIATIEAMKMEAPITAPVAGTVERVAVSDTAQVEGGDLLVVVS
Regarding B1, the binding result is recorded as “binds”.
